Experiments:
[1] = general procedure: Boc solid-phase peptide synthesis; Boc-L-Pro-O-(PAM)-resin; BOP reagent/DIEA for some couplings; acid chloride coupling; conditions: whole synthesis
[2] = general procedure: Boc solid-phase peptide synthesis; chloromethylated resin (Merrifield resin); Boc-L-Pro-O-(PAM)-resin; BOP reagent/DIEA for some couplings; acid chloride coupling; conditions: for isolated mass: scale 1 mmole
[3] = whole synthesis, HPLC (Method G), scale of the general procedure 1 mmole
[4] = whole synthesis, scale of the general procedure 1 mmole
[5] = scale 1 mmole, head-to-tail ring
[6] = whole synthesis, HPLC (Method G), scale of the general procedure 1 mmole, head-to-tail ring
[7] = whole synthesis, scale of the general procedure 1 mmole, head-to-tail ring
[8] = late stage modification step, HPLC (Method G), head-to-tail ring
[9] = whole synthesis, 214 nM, scale of the general procedure 1 mmole, head-to-tail ring
[10] = whole synthesis, 210 nM, scale of the general procedure 1 mmole
[11] = whole synthesis, 210 nM, scale of the general procedure 1 mmole, head-to-tail ring
[12] = late stage modification step, HPLC (Method G)

In the case of “C-[D-O-Bzl)-Tyr-L-Ile-D-Pip-L-(Boc)Lys-D-(N-Me)Phe-L-Pro]”, the isolated mass ([1]; scale 1 mmole) is reported as 700 mg, the “final HPLC purity” value [2, 3] is reported as 99% and the isolated yield [2, 4] is reported as 73%.

For “C-[D-(O-t-Bu)-Tyr-L-lle-D-Pip-L-(Boc)Lys-D-(N-Me)Phe-L-Pro]”, the isolated mass ([1]; scale 0.5 mmole) was 700 mg, the “final HPLC purity” value [2, 3] was 99% and the isolated yield [2, 4] was 73%.

In the case of “cyclo[D-Ala-L-Ile-D-Pip-L-Pip-D-Phe-L-Pro]”, the isolated mass ([1]; scale 1 mmole) is reported as 452 mg, the “final HPLC purity” value [2, 3] is reported as “purity 99%” and the isolated yield [2, 4] is reported as 70%.

In the case of “C-[D-Phe-L-Phe-D-Pip-L-Pip-N-Me-D-Phe-L-Pro]”, the isolated mass [1, 5] is reported as 348 mg, the “final HPLC purity” value [2, 6] is reported as 95% and the isolated yield [2, 7] is reported as 45%.

For “c-[D-Trp-L-HomoPhe-D-Pip-L-Pip-D-(NMe)Phe-L-Pro]”, the isolated mass [1, 5] was 520 mg, the isolated yield [1, 5] was 63% and the “final HPLC purity” value [2, 6] was 99%.

For “c-[D-Trytophanyl-L-isoleucinyl-D-pipecolyl-L-piperazin-2-yl-D-tryptophanyl-L-prolyl]”, the “final HPLC purity” value ([2]; late stage modification step, 210 nM, head-to-tail ring) was over 97.7%.

For “c-[L-prolyl-D-phenylalanyl-L-isoleucyl-D-piperazyl L-piperazyl-D-phenylalanyl]”, the “final HPLC purity” value [2, 8] was 96% pure.

In the case of “Cyclo[D-Trp-L-Ile-D-Pip-L-(Cbz)Lys-D-(N^αMe)Phe-L-Pro]”, the “final HPLC purity” value [2, 3] is reported as 99%, the isolated mass ([2]; whole synthesis) is reported as 480 mg and the isolated yield [2, 4] is reported as 49%.

For “cyclo[D-Phe-L-Ile-D-Pip-L-Pro-D-(NαMe)Phe-L-Pro]”, the “final HPLC purity” value [2, 3] was “purity 98%”, the isolated mass ([2]; whole synthesis) was 382 mg and the isolated yield [2, 4] was 39%.

For “c-[D-Phenylalanyl-L-prolyl-D-prolyl-L-prolyl-D-phenylalanyl-L-prolyl]”, the “final HPLC purity” value [2, 9] was 97%.

With “C-[D-Phenylalanyl-L-isoleucyl-D-Δ-piperazyl-L-(N^ε-t-Butyloxycarbonyl)-Lysl-M-Me-D-phenylalanyl-L-prolyl]” the “final HPLC purity” value [2, 3] was over 94%.

For “c-[D-(O-Ethyl)-tyrosyl-L-isoleucyl-D-(O-tert-butyl)-threonyl-L-asparapyl-D-phenylalanyl-L-prolyl]”, the “final HPLC purity” value [2, 6] was 98.6% pure.

In the case of “c-[D-Phenylalanyl-L-isoleucinyl-D-piperazin-2-yl-(4-Cbz)-L-piperazin-2-yl(4-Cbz)-D-(N^α-methyl)phenylalanyl -L-prolyl]”, the “final HPLC purity” value [2, 10] is reported as over 94%.

In the case of “c-[D-Phenylalanyl-L-isoleucinyl-D-prolyl-L-cis-hydroxyprolyl-D-phenylalanyl-L-prolyl]”, the “final HPLC purity” value [2, 9] is reported as 98%.

In the case of “c-[D-Phenylalanyl-L-isoleucyl-D-pipecolyl-L-2,3-diaminopropionyl-N-methyl-D-phenylalanyl-L-prolyl]”, the “final HPLC purity” value [2, 8] is reported as 99.7% pure.

In the case of “c-[D-Phenylalanyl-L-isoleucyl-D-pipecolyl-L-pipecolyl-D-N-methyl-phenylalanyl-L-prolyl]”, the “final HPLC purity” value [2, 6] is reported as 93.8% pure.

In the case of “c-[D-Phenylalanyl-L-isoleucyl-N-methyl-D-alanyl-N-methyl-L-alanyl-D-phenylalanyl-L-prolyl]”, the “final HPLC purity” value [2, 11] is reported as 99%.

In the case of “Cyclo[D-Trp-L-lie-D-Pip-L-Lys-D-His-L-Pro]”, the step yield ([2]; late stage modification step) is reported as 32% and the “final HPLC purity” value [2, 12] is reported as 99%.

For “c-[D-2-Napthylalanyl-L-isoleucyl-D-pipecolyl-L-[N-(1-methyl-quinuclidinium-3-yl-carbonyl)]lysyl-D-(N-methyl)phenylalanyl-L-prolyl]”, the step yield ([2]; late stage modification step) was 48% and the “final HPLC purity” value [2, 12] was 99%.

For “Cyclo[D-Trp-L-Ile-D-Pip-L-(Cbz)Lys-D-His-L-Pro]”, the “final HPLC purity” value [2, 3] was 99%, the isolated mass ([2]; whole synthesis) was 350 mg and the isolated yield [2, 4] was 30%.

With “C[D-Phenylalanyl-L-isoleucyl-D-prolyl-L-prolyl-D-phenylalanyl-L-prolyl]” the “final HPLC purity” value [2, 10] was 99%.

For “Cyclo[D-Trp-L-Ile-D-Pip-L-(Cbz)Om-D-Trp-L-Pro]”, the “final HPLC purity” value [2, 3] was 99%, the isolated mass ([2]; whole synthesis) was 370 mg and the isolated yield [2, 4] was 39%.

For “C-[D-2-Nal-L-Ile-D-Pip-L-(Boc)-Lys-D-(N-Me)Phe-L-Pro]”, the isolated mass ([1]; scale 1 mmole) was 300 mg, the “final HPLC purity” value [2, 3] was 99% and the isolated yield [2, 4] was 66%.

With “c-[D-phenylalanyl-L-isoleucyl-D-pipecolyl-L-pipecolyl-N-methyl-D-phenylalanyl-N-methyl-L-alanyl]” the “final HPLC purity” value [2, 6] was 95.1% pure.

In the case of “cyclo[D-His-L-Ile-D-Pip-L-Pip-D-(NαMe)Phe-L-Pro]”, the “final HPLC purity” value [2, 3] is reported as “purity 99%”, the isolated mass ([2]; whole synthesis) is reported as 242 mg and the isolated yield [2, 4] is reported as 26%.

In the case of “Cyclo[D-Phe-L-Ile-D-Pip-L-Pip-D-(N^αMe)Phe-L-Pro]”, the cyclisation yield ([2]; cyclisation step) is reported as 70%.

In the case of “c-[L-Phenylalanyl-D-isoleucyl-L-prolyl-D-prolyl-L-phenylalanyl-D-prolyl]”, the “final HPLC purity” value [2, 11] is reported as 100%.

In the case of “c-[D-Phenylalanyl-L-isoleucyl-D-(Ns-Boc)-ornithyl-L-pipecolyl-N-methyl-D-phenylalanyl-L-prolyl]”, the “final HPLC purity” value [2, 6] is reported as 97.0% pure.

In the case of “Fmoc-L-isoleucyl-D-pipecolyl-L-pipecolyl-N-methyl-D-phenylalanyl-benzyl ester”, the “final HPLC purity” value [2, 3] is reported as 95.2% pure.

In the case of “Cyclo[D-Trp-L-Ile-D-Pip-L-Pip-D-(N^αMe-O-Bzl)-Tyr-L-Pro]”, the “final HPLC purity” value [2, 3] is reported as 99%, the isolated mass ([2]; whole synthesis) is reported as 350 mg and the isolated yield [2, 4] is reported as 35%.

With “c-[D-Phenylalanyl-L-isoleucinyl-D-prolyl-cis-D-hydroxyprolyl-D-phenylalanyl-L-prolyl]” the “final HPLC purity” value [2, 9] was 99%.

In the case of “c-[D-Trp-L-Phe-D-Pip-L-Pip-D-(NMe)Phe-L-Pro]”, the isolated mass [1, 5] is reported as 611 mg, the “final HPLC purity” value [2, 6] is reported as 99% and the isolated yield [2, 7] is reported as 75%.

For “c-[D,L-(5-F)Trp-L-Ile-D-Pip-L-Pip-D-His-L-Pro] higher Rf isomer”, the “final HPLC purity” value [2, 3] was 90%.

In the case of “c-[(O-Ethyl)-D-tyrosyl-L-isoleucyl-D-pipecolyl-L-pipecolyl-N-methyl-D-phenylalanyl-L-prolyl]”, the “final HPLC purity” value [2, 6] is reported as 93.8% pure.

For “c-[D,L-(5-Me)Trp-L-Ile-D-Pip-L-Pip-D-His-L-Pro] lower Rf isomer”, the “final HPLC purity” value [2, 3] was 98%.

With “cyclo[D-Phe-L-Ile-D-Pip-L-Pip-D-Trp-L-Pro]” the “final HPLC purity” value [2, 3] was “purity 99%”, the isolated mass ([2]; whole synthesis) was 500 mg and the isolated yield [2, 4] was 65%.

In the case of “c-[D-Phenylalanyl-L-isoleucyl-D-prolyl-L-transhydroxyprolyl-D-phenylalanyl-L-prolyt]”, the “final HPLC purity” value [2, 9] is reported as 98%.

In the case of “cyclo[D-Trp-L-Ile-D-Pip-L-Pip-D-(NαMe)His-L-Pro]”, the “final HPLC purity” value [2, 3] is reported as “purity 99.%”, the isolated mass ([2]; whole synthesis) is reported as 110 mg and the isolated yield [2, 4] is reported as 12%.

For “c-[D-Phenylalanyl-L-isoleucinyl-D-piperazin-2-yl-(4-Cbz)-L-pipecolyl-D-phenylalanyl-L-prolyl]”, the “final HPLC purity” value ([2]; whole synthesis, 214 nM, head-to-tail ring) was over 95%.

Substance “cyclo[D-Phe-L-Ile-D-Pip-L-Pip-D-(2-Cl-Cbz)-Lys-L-Pro]” has an isolated mass ([2]; whole synthesis) of 564 mg and an isolated yield [2, 4] of 65%.

With “Cyclo[D-phenylalanyl-L-isoleucyl-D-pipecolyl-L-pipecolyl-D-ornithyl-L-prolyl]” the step yield ([2]; late stage modification step) was 38% and the “purity (crude or final not stated)” value [2, 12] was 99%.

For “c-[N-Me-D-Alanyl-L-isoleucyl-D-pipecolyl-L-pipecolyl-N-Me-D-phenylalanyl-L-prolyl]”, the “final HPLC purity” value [2, 11] was over 96.5%.

For “c-[D-Phenylalanyl-L-isoleucyl-D-prolyl-L-seryl-N-methyl-D-phenylalanyl-L-prolyl]”, the “final HPLC purity” value [2, 6] was 97.8% pure.

With “cyclo[D-Phe-L-Ile-D-(NαMe)Ala-L-Pip-D-(NαMe)Phe-L-Pro]” the “final HPLC purity” value [2, 3] was “purity 99%”, the isolated mass ([2]; whole synthesis) was 350 mg and the isolated yield [2, 4] was 48%.

In the case of “c-[D-Homophenylalanyl-L-isoleucyl-D-pipecolyl-L-pipecolyl-N-Me-D-phenylalanyl-L-prolyl]”, the “final HPLC purity” value [2, 11] is reported as over 95.5%.

With “cyclo[D-Phe-L-Ile-D-Pip-L-Pip-D-(Cbz)-Orn-L-Pro]” the “final HPLC purity” value [2, 3] was “purity >97%”, the isolated mass ([2]; whole synthesis) was 582 mg and the isolated yield [2, 4] was 70%.

With “c-[D-Phenylaianyl-L-isoleucyl-D-pipecolyi-L-asparagyl-N-methyl-D-phenylaianyl-L-prolyl]” the “final HPLC purity” value [2, 8] was 94.2% pure.

In the case of “cyclo[D-Trp-L-Ile-D-Pip-L-Pip-D-(NαMe)Phe-L-Pro]”, the “final HPLC purity” value [2, 3] is reported as “purity 99%”, the isolated mass ([2]; whole synthesis) is reported as 400 mg and the isolated yield [2, 4] is reported as 52%.

For “cyclo[D-α-Nal-L-Ile-D-Pip-L-Pip-D-His-L-Pro]”, the “final HPLC purity” value [2, 3] was “purity 99%”, the isolated mass ([2]; whole synthesis) was 142 mg and the isolated yield [2, 4] was 14%.
